# Test results reported in ChEMBL document CHEMBL4513149, “CO-ADD screening of MMV (CH) - MMV compounds” (2021).
# This is one part of the list. Measured potencies and affinities stand elsewhere.
# System: Acinetobacter baumannii
# Conditions: Concentration 20 uM; ASSAY_TEST Inhibition of Bacterial Growth; detection method Absorption (OD600); MEDIA CAMHB; plate type 384well; NBS; CORNING #3640; time 18 hr
row,Structure (SMILES),Inhibition
1,Cc1cc(C(=O)Nc2cnn(Cc3ccc(Cl)cc3Cl)c2)no1,-1.31%
2,Cl.NCCCC(N)(C(=O)O)C(F)F.O (configuration not stated) [EFLORNITHINE HYDROCHLORIDE],6.34%
3,C[C@H](c1ccc2c(c1)CCCC2)N(C)c1ncc2c(N)nc(N)nc2n1,15.43%
4,Cc1ccccc1CN1CCC(O)(c2ccc(Cl)c(C(F)(F)F)c2)CC1,5.63%
5,CCCCc1ccc(NC(=O)Nc2ccc(O[C@H]3CCCC[C@@H]3N(C)c3ccccc3)c(F)c2)cc1,12.41%
6,CCOc1ccccc1C(=O)Nc1cccc(-c2nc3ncccn3c2C)c1,17.76%
7,COc1cc(NC(=O)Cc2nn(C)c(=O)c3ccccc23)ccc1Cl,8.43%
8,COc1ccccc1CNC(=O)c1cc(C2CC2)nc2c1cnn2C(C)C,2.44%
9,CNC(=O)c1nn(C)c2c1C(C)(C)Cc1cnc(Nc3ccc(N4CCN(C)CC4)cc3)nc1-2 [MILCICLIB],2.31%
10,CCC(Sc1nc2ccccc2o1)C(=O)Nc1nnc(C)s1 (configuration not stated),7.01%
11,Cl.O=C(Nc1ccc(N2CCNCC2)nc1)c1oc(-c2ccccc2)nc1C(F)(F)F,4.8%
12,Cc1cccc(NC(=O)c2cc(S(=O)(=O)N(C)c3ccc(F)cc3)ccc2Cl)n1,9.94%
13,N=C(N)c1ccc(-c2cc(-c3ccccc3)on2)cc1,12.3%
14,O=C(NCc1cc(Cl)cc(Cl)c1)c1c(C(F)(F)F)nc2ccccn12,9.38%
15,CS(=O)(=O)Cc1nc2ccccc2oc1=O,11.71%
16,COc1ccc(-c2cncc3ccc(C(=O)NCCCn4ccnc4)nc23)cc1,-5.55%
17,COc1ccc(Cn2cnc3c(-c4ccco4)nc(Cl)nc32)cc1,8.03%
18,OCCc1ccc(Nc2nccc(-c3nnc4ccccn34)n2)cc1,7.9%
19,CN(C)c1cc(NC(=O)Nc2ccccc2)c2ccccc2n1,14.06%
20,CCN(CC)S(=O)(=O)c1ccc(Cl)c(C(=O)Nc2ccc3nc(C)sc3c2)c1,5.37%
21,O=C1[C@@H](Oc2ccccc2)[C@@H](c2ccc(Cl)cc2)N1CCn1cnc2c(NCc3ccccc3)ncnc21,3.98%
22,N#Cc1nc(-c2ccccc2F)oc1NCCc1ccccc1,6.21%
23,Cc1ccc2nc(C)c(-c3ccn(Cc4ccccc4)n3)n2c1,2.02%

row,Structure (SMILES),Inhibition
1,COc1cc(-c2cc(-c3ccc(S(C)(=O)=O)cc3)cnc2N)ccc1O,-9.66%
2,CNC1C(OC2C(OC3C(O)C(O)C(NC(=N)N)C(O)C3NC(=N)N)OC(C)C2(O)C=O)OC(CO)C(O)C1O.CNC1C(OC2C(OC3C(O)C(O)C(NC(=N)N)C(O)C3NC(=N)N)OC(C)C2(O)C=O)OC(CO)C(O)C1O.O=S(=O)(O)O.O=S(=O)(O)O.O=S(=O)(O)O (configuration not stated),1.27%
3,c1ccc(-c2[nH]c3ccccc3c2C(c2ccccn2)N2CCCC2)cc1 (configuration not stated),10.19%
4,Clc1ccc(Cl)c(CO[C@H]2CCCC[C@@H]2n2ccnc2)c1,15.2%
5,Cc1cc(C)n(-c2ccc(NC(=O)C3CCN(Cc4cnc(C)s4)CC3)cc2)n1,8.93%
6,O=C1N(Cc2cc3ccccc3s2)CC2CN(Cc3ccccc3)CCN12 (configuration not stated),0.51%
7,Cl.Cn1ccnc1CNCCS(=O)(=O)c1cccc(Nc2ccc(-c3cccc(F)c3)cn2)c1,8.57%
8,Cc1cc(NC(=O)c2ccc(S(=O)(=O)N(Cc3ccccc3)C(C)C)cc2)no1,-3.71%
9,CC1=Nc2ccc(Cl)cc2C(c2ccccc2)N1CCNC(=O)CN(C)C (configuration not stated),8.88%
10,CN1CCN(c2nccc3[nH]c(-c4cccc(F)c4)cc23)CC1,-2.54%
11,O=C(NCCN1CCCC1)c1cc(NCCCCN2CCC(F)(F)CC2)nc2ccc(Cl)cc12,14.07%
12,COc1cncc(-c2cncc(N3CCN(c4ccncc4)CC3)n2)c1,16.72%
13,O=S(=O)(c1ccc(Cl)cc1)N1CCN(C(=S)NCc2ccco2)CC1,6.4%
14,Cc1ccc2[nH]c3c(NCCN(C)C)ncnc3c2c1,10.41%
15,CC1=NN(c2nc3ccccc3s2)C(=O)C1Cc1cccc2ccccc12 (configuration not stated),-6.52%
16,CC1CC1C(=O)NC1CCN(CC2(c3ccccc3)CCCCC2)CC1 (configuration not stated),10.59%
17,COc1cccc(OC)c1C(=O)Nc1ccc(Cl)c(-c2nc3ccccc3s2)c1,-0.36%
18,O=C(NCc1ccco1)N1CCN(Cc2ccc(Cl)s2)CC1,8.99%
19,CCCCS(=O)(=O)Nc1ccc2cnn(C)c2c1,1.4%
20,CCN(CC)CCCN1CCN(C(=O)c2cccc(-c3noc(C(F)(F)F)n3)c2)CC1,6.18%
21,Cc1ccc(-c2nc(CN(Cc3ccccn3)C(C)C)cs2)o1,9.23%
22,Nc1ccc(C(=O)Nc2ccc(-c3nc4ccccc4o3)cc2)cc1,-1.87%
23,CC(C)(C)OC(=O)N1CCN(c2nccc(-c3ccc(-c4ccc(Cl)cc4)s3)n2)CC1,6.58%

row,Structure (SMILES),Inhibition
1,CC(C)/N=c1\cc2n(-c3ccc(Cl)cc3)c3ccccc3nc-2cc1Nc1ccc(Cl)cc1 [CLOFAZIMINE],-0.68%
2,c1cc(C2=NCCN2)cc(-c2cc(-c3ccc(C4=NCCN4)cc3)no2)c1,13.62%
3,Cc1cc(C)nc(-n2nc(C)cc2Nc2ccccc2)n1,19.44%
4,Nc1ncnc2[nH]nc(Cc3cccc4ccccc34)c12,6.9%
5,CN1CCCC1CCO[C@](C)(c1ccccc1)c1ccc(Cl)cc1.O=C(O)/C=C/C(=O)O (some centres not stated),22.76%
6,Cc1ccc(-c2cc(C(=O)Nc3cccnc3)c3cc(Br)ccc3n2)cc1,7.25%
7,CCCn1c(CNc2ccccc2O)nc2ccccc21,12.04%
8,Cc1cc(Nc2ccc(C(F)(F)F)cc2)n2ccnc2n1,0.53%
9,COc1ccc(CN2CCOc3ccc(C(C)(O)CN(C)C)cc3C2)cc1C (configuration not stated),-1.07%
10,O=C(NCCc1c[nH]c2ccccc12)c1cc2ccccc2oc1=O,3.94%
11,CC1CCCN(C(=O)C(C)Nc2cc(Cl)ccc2N2CCOCC2)C1 (configuration not stated),9.92%
12,COc1ccc(-c2cnc3cnc(-c4cccc(OC(C)C)c4)cn23)cc1,2.09%
13,COc1nc2ccc(Br)cc2cc1[C@@H](c1ccccc1)[C@@](O)(CCN(C)C)c1cccc2ccccc12.O=C(O)C(F)(F)F,9.78%
14,O=C(OCc1ccccc1)N1CCC(c2cc(-c3ccncc3)c(-c3ccc(F)cc3)[nH]2)CC1,3.73%
15,O=C(Nc1nc(-c2ccccn2)cs1)c1cncn1-c1ccccc1,11.12%
16,CC(C)c1ncc(-c2ccncc2)c([C@H]2CC[C@H](CNC(=O)c3cccnc3)CC2)n1,12.7%
17,O=C(Nc1ccccc1-c1nc2c(C(=O)O)cccc2o1)c1ccccc1,4.07%
18,Cc1ccc(S(=O)(=O)n2cc(-c3ccnc(N)c3)c3cc(Br)cnc32)cc1,2.14%
19,O=C(Nc1nnc(S)s1)c1cc(Br)ccc1Cl,12.11%
20,O=C(Nc1ccc(F)c(-c2nc3cc(-c4ccccc4)cnc3[nH]2)c1)N1CCCC1,9.18%
21,OC[C@H]1O[C@@H](n2c3ccc(Cl)cc3c3c(-c4cc5ccccc5o4)ncnc32)C(O)[C@H]1O (some centres not stated),14.45%
22,Cc1noc(C)c1COc1cccc(C(=O)N=c2[nH]cccc2C)c1,9.22%
23,COc1cccc(OCC(=O)c2ccc(Br)cc2)c1,-1.67%

# A few values from the entries so far.
# For Inhibition, Cc1cc(C)nc(-n2nc(C)cc2Nc2ccccc2)n1 is listed with 19.44%
# For Inhibition, CC1CCCN(C(=O)C(C)Nc2cc(Cl)ccc2N2CCOCC2)C1 (configuration not stated) is listed with 9.92%
# For Inhibition, CC(C)/N=c1\cc2n(-c3ccc(Cl)cc3)c3ccccc3nc-2cc1Nc1ccc(Cl)cc1 [CLOFAZIMINE] is listed with -0.68%

# Following part:

row,Structure (SMILES),Inhibition
1,CCC(Sc1nc2ccccc2o1)C(=O)Nc1nccs1 (configuration not stated),9.34%
2,O=C(C(Cc1c[nH]c2ccccc12)NS(=O)(=O)c1ccc(Cl)cc1)N1CCCCC1 (configuration not stated),6.8%
3,N#CCN(CCCCN1CCN(c2ccc(F)cc2)CC1)C(=O)OCc1ccccc1,7.12%
4,COc1ccc2nc(C)cc(OCC(=O)Nc3ccccc3OC)c2c1,13.7%
5,COc1ccc(-c2cc(NC(=O)c3ccc(F)cc3Cl)ccc2OC)cc1,1.84%
6,Cc1cc2ccccc2n1CC(=O)N1CC(C(=O)N2CCCCC2)Oc2ccccc21 (configuration not stated),12.36%
7,CC1CS(=O)(=O)CCN1/N=C/c1ccc([N+](=O)[O-])o1 (configuration not stated) [NIFURTIMOX],12.66%
8,N#Cc1ccc(-c2cnc(N)c(-c3ccc(C(N)=O)cc3)n2)cc1,12.16%
9,O=C(NC1CCN(c2ccnc3ccccc23)C1)c1cccc(C(F)(F)F)c1 (configuration not stated),17.29%
10,Nc1ncnc2c1c(-c1cnc3ccccc3c1)nn2CC1CCNCC1,8.81%
11,CC(C)C(C(=O)Nc1ccc(S(=O)(=O)N(C)C)cc1)c1ccc(Cl)cc1 (configuration not stated),1.48%
12,OCc1ccc(-c2cncc(Nc3cccc(Cl)c3)c2)cc1,-6.21%
13,CC(=O)Nc1ccc(NC(=O)c2cc(-c3cc(Cl)ccc3O)n[nH]2)cc1,9.68%
14,c1ccc2c(c1)CN(CC1CC1)CC1(CCN(Cc3c[nH]c4cnccc34)CC1)O2,8.27%
15,CCS(=O)(=O)N(Cc1ccco1)Cc1cc2ccc(C)cc2nc1O,3.8%
16,O=C(c1ccc(F)cc1)N(CCNc1ccccc1)c1ccccc1,3.31%
17,CCCCOC(=O)Nc1cc2nc(C3CCCCC3)[nH]c2cc1N1CCCC1,17.07%
18,Cc1cccc(Cn2ccc(NC(=O)c3ccc4c(c3)OCO4)n2)c1,8.05%
19,COc1ccc(C(=N)N)cc1-c1cn(-c2ccc(C(=N)N)cc2)nn1.Cl.Cl,9.03%
20,Nc1cccnc1Nc1ccc(Cl)cc1,8.68%
21,COc1ccc(Oc2ccc([C@@H](C)N(C)c3ncc4c(N)nc(N)nc4n3)cc2)cc1,12.77%
22,CCOC(=O)c1noc(N)c1-c1ccccc1,4.78%
23,c1ccc(Oc2ccc(-c3cc(N4CCOCC4)[nH]n3)cc2)cc1,6.26%
